Results are given in words; binding and its absence hold for the method and conditions named. Some entries that bind do so weakly or less than the wild type. Sequences can lack the tags named with a protein.
Tests used:
[1] = biological target: T1, Recombinant human bone morphogenetic protein-1 (BMP-1) with a C-terminal FLAG tag (human) (UniProt P13497); test: SPR; single injections over immobilised BMP-1 (2,300 RU) or mTLL-1 (1,120 or 310 RU): C1q CLR, C1q GR and MBL CRD at 500 nM; wt MBL, K55A and K55E at 16 nM; 50 mM triethanolamine-HCl, 145 mM NaCl, 2 mM CaCl2, 0.005% P20, pH 7.4; both purified
T1 sequence: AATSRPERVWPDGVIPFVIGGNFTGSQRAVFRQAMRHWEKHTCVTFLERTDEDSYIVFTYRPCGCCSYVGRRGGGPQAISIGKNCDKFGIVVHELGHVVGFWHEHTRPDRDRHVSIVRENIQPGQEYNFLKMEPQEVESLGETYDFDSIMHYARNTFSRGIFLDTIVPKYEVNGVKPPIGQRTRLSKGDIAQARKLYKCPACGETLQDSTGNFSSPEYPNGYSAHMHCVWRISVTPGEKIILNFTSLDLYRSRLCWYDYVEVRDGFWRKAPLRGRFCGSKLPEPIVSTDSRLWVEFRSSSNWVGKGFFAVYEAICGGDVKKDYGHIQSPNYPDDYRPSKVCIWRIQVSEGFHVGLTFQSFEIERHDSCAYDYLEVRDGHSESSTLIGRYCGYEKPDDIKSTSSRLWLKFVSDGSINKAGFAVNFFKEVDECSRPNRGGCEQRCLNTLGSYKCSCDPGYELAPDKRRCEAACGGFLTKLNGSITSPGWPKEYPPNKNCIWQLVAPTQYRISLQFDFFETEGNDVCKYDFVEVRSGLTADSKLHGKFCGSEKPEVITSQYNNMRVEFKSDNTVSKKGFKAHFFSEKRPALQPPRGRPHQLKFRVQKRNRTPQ

Sequences of proteins named here, by UniProt entry; tags and fusion partners are left off. Residues count along the entry.
UniProt P11226, residues 21-248: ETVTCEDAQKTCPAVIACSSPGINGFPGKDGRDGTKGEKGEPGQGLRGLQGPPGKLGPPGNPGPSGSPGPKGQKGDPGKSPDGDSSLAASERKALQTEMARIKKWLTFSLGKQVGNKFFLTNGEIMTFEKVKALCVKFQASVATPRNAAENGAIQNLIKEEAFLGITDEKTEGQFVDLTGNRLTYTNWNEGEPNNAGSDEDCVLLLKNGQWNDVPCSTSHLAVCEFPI

[2] = biological target: T2, Recombinant human mammalian tolloid-like-1 (mTLL-1) with a C-terminal 6x-His tag (human) (UniProt O43897); test: as above
T2 sequence: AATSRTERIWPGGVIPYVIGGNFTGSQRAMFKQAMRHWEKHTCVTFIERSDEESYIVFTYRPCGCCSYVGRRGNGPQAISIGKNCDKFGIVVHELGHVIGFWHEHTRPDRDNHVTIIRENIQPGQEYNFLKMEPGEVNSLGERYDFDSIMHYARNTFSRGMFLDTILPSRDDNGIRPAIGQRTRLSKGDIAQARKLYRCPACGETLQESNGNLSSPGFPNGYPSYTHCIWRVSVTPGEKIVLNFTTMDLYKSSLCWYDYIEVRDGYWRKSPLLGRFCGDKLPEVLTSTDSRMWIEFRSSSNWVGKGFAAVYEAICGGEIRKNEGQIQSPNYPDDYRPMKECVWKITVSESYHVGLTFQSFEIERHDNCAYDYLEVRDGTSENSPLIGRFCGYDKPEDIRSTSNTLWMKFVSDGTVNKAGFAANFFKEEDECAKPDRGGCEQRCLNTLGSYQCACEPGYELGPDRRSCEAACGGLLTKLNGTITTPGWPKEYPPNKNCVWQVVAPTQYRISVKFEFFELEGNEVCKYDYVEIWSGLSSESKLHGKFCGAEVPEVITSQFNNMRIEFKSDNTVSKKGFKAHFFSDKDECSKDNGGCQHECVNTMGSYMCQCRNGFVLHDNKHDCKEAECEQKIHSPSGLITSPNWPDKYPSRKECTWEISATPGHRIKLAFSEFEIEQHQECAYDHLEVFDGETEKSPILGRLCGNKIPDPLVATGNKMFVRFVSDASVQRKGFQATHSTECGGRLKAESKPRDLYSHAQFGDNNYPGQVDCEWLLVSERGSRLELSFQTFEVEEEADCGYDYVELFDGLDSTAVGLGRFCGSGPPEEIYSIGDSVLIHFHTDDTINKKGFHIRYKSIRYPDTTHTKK

[3] = biological target: T1, Recombinant human bone morphogenetic protein-1 (BMP-1) with a C-terminal FLAG tag (human); test: SPR; competition: C1q or MBL (10 nM) incubated 15 min at room temperature with soluble mTLL-1 or BMP-1 (6-fold molar excess; mTLL-1 60 nM), then injected over immobilised mTLL-1 (3,400 RU) or BMP-1; 50 mM triethanolamine-HCl, 145 mM NaCl, 2 mM CaCl2, 0.005% P20, pH 7.4; both purified
[4] = biological target: T2, Recombinant human mammalian tolloid-like-1 (mTLL-1) with a C-terminal 6x-His tag (human); test: as above
[5] = biological target: T1, Recombinant human bone morphogenetic protein-1 (BMP-1) with a C-terminal FLAG tag (human); test: SPR; competition: C1q (10 nM) incubated 15 min at room temperature with or without C1s-C1r-C1r-C1s (10 nM) or MASP-2 (60 nM), MBL (10 nM) with or without MASP-2 (60 nM), then injected over immobilised BMP-1 (2,300 RU) or mTLL-1 (3,400 RU); 50 mM triethanolamine-HCl, 145 mM NaCl, 2 mM CaCl2, 0.005% P20, pH 7.4; both purified
[6] = biological target: T2, Recombinant human mammalian tolloid-like-1 (mTLL-1) with a C-terminal 6x-His tag (human); test: as above

Measured: binding

Recombinant human mannose-binding lectin (MBL) (from UniProt P11226 21-248)
binds: all assays above

Source: publication PMC5717261
